Taken from: PubChem BioAssay AID652259 (Drosophila RNAi Screening Center, 2013)

Screen: 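Knock-downs that push a Wingless-driven reporter up or down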 (primary screen)
System: Drosophila clone 8 imaginal disc epithelial cells
Reagents: long dsRNA against Drosophila genes
Conditions: pathway stimulated by co-transfected Wingless expression plasmid
Measured: 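Firefly luciferase from a tcf-site Wingless reporter, measured alongside co-transfected Renilla luciferase that tracks transfection; pathway stimulated by a Wingless plasmid; the firefly-to-Renilla ratio is not deposited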
Scale: firefly reporter light: higher = more Wg reporter light, before normalisation; Renilla control light: higher = more transfected or surviving cells
Hit rule: 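Strong candidates differ from their plate mean by at least two out of four per-plate statistical tests; weak candidates meet just one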
Meaning of the calls: active = candidate regulator (raises or lowers reporter); inactive = not a candidate
In all, the deposit lists about 22,000 reagents; shown is an unselected part of those that have a named target and a result. Over the whole deposit, 233 (1.1%) were called active. 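Light values are raw, unnormalised plate reads; the ratio scores behind the reporter calls were not deposited.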 A number with no mark means an inactive call. Names joined by + are all predicted targets of the reagent. Not stated in the record: the amount of reagent, the time to read-out, the dose of the treatment.

no.	Gene	DRSC id	reporter change call, replicate 1	firefly reporter light, replicate 1	firefly reporter light, replicate 2	Renilla control light, replicate 1	Renilla control light, replicate 2
1	HHEX	DRSC16186		12522		1616	
2	CG14495	DRSC06466		5808		1747	
3	wcy	DRSC20132		3584	12932	876	1804
4	Rpt1	DRSC07542		7220		769	
5	Sems	DRSC11626		20066		7763	
6	CG7606	DRSC13246		4833		1765	
7	CG7606	DRSC16268		15364		4460	
8	CG13850	DRSC14700		2194	4797	1123	1532
9	Nep1	DRSC18388		2844	8888	857	2240
10	Nep1	DRSC18389		9052		2151	
11	Rexo5	DRSC10981		1337	9628	661	2874
12	Usp7	DRSC18909		4450		1808	
13	Usp7	DRSC19604		24811		11538	
14	CG3491	DRSC01934		1542	2885	896	1969
15	BORCS7 + CG13430	DRSC06392		10832		2945	
16	BORCS7 + CG13430	DRSC06707		4661		2301	
17	CG11035	DRSC14287		8164		3043	
18	CG5828	DRSC02900		2540	5968	876	2632
19	CG13912	DRSC08381		4704		2184	
20	CG8065	DRSC10959		7874		2106	
21	Vps53	DRSC00595		10441		4240	
22	Tomosyn	DRSC19365		2909	7136	644	1475
23	Tomosyn	DRSC19692		23156		10945	
24	Tomosyn	DRSC19782		1589	7056	803	2490
25	Tomosyn	DRSC19842		34411		16640	
26	CG11192	DRSC06057		5908		1840	
27	Tpc2	DRSC04322		2685	5190	412	1795
28	CG42258	DRSC19741		19376		9910	
29	CG42258	DRSC19783		22627		7888	
30	AMPdeam	DRSC18996		539		322	
31	AMPdeam	DRSC19366		1449	6107	599	2119
32	AMPdeam	DRSC19368		23623		11651	
33	AMPdeam	DRSC19727		25460		13363	
34	msopa	DRSC11895		7541		1330	
35	He + NimB5	DRSC22876		7.95e5	8.94e5	4.38e5	3.29e5
36	Qsox2	DRSC15287		3242	4502	1080	1939
37	rb	DRSC18826		24722		14277	
38	lolal	DRSC06948		17938		5945	
39	Hsepi	DRSC04986		3256	8166	1148	3200
40	caly	DRSC07182		15416		4837	
41	Odc2	DRSC07483		3608	6886	864	2533
42	CG7329	DRSC03046		2820	6955	1445	2329
43	ND6 (retired record)	DRSC21271		22403	7.22e5	14896	3.21e5
44	SmF	DRSC07397	Wg reporter activity lowered	6675		2179	
45	ERR	DRSC10840		4824		1645	
46	CG32486	DRSC08413	Wg reporter activity lowered	3124		826	
47	CG32486	DRSC08488		5869		3042	
48	Gba1a	DRSC21494		4.92e5	4.62e5	2.08e5	1.84e5
49	CG5172	DRSC19936		31236		10960	
50	CG6885	DRSC10740		5830		1888	
51	CG31882	DRSC01084		22688		10571	
52	CG7789	DRSC16312		4842	9348	1591	2593
53	Setd3	DRSC17840		16168		8984	
54	Setd3	DRSC18269		16746		7994	
55	CG17572	DRSC02629		2182	6821	713	1972
56	CG11841	DRSC14399		2227	2595	1303	560
57	asRNA:CR43468 + Lfg	DRSC06853		5893		2471	
58	CG7156	DRSC16207		1828	6436	848	1901
59	CG12541	DRSC17483		5018		870	
60	CG12541	DRSC17839		22119		9162	
61	Or33a	DRSC03386		2338	6896	706	3926
62	CG3592	DRSC18315		19980		13072	
63	Tpst	DRSC18989		3874		563	
64	Tpst	DRSC19696		31728		17865	
65	Tpst	DRSC19723		27440		13899	
66	Tpst	DRSC19724		24289		4386	
67	Tpst	DRSC22621		5.57e5	5.66e5	86858	572
68	CG8564	DRSC10997		4077		1720	
69	g	DRSC20335		24347		12352	
70	CG6153	DRSC02935		9941		4106	
71	CG14658	DRSC12244		12434		4411	
72	CG9328	DRSC03203		10828		3635	
73	SamDC	DRSC03429		8074		3088	
74	CG42233	DRSC14328		21834		15863	
75	CG42233	DRSC15416		20992		18416	
76	bam	DRSC16907		18626		16180	
77	CG8012	DRSC10951		2448	10344	2048	4624
78	Cda9	DRSC06593		3574		1616	
79	CG4783	DRSC15644		3434		1175	
80	Pbp45	DRSC16509		23501		6688	
81	Nek2	DRSC18124		3992	10252	1785	3469
82	HisCl1	DRSC14945		7339		2473	
83	Pex12	DRSC00622		2627	6528	882	2209
84	CG5327	DRSC06930		5658		2219	
85	Cda5	DRSC00003		27677		16308	
86	Cda5	DRSC00529		2422	6992	1105	2873
87	Cda5	DRSC00532		2813	8089	1159	3296
88	Cda5	DRSC21330		4.91e5	3.54e5	5.40e5	1.71e5
89	CG30413	DRSC04001		12905		5844	
90	7SLRNA:CR42652 + 7SLRNA:CR32864	DRSC22968		5.89e5	6.22e5	2.39e5	2.85e5
91	CG31688	DRSC02117		2843	5032	395	1197
92	CG31688	DRSC02682		2650	5184	644	2301
93	Tmem214	DRSC02924		2051	5367	893	2891
94	Tmem214	DRSC02925		3141	7076	1338	4690

Sorted by “Renilla control light, replicate 1” (highest first): 11 of the entries above.
Gene	DRSC id	reporter change call, replicate 1	firefly reporter light, replicate 1	firefly reporter light, replicate 2	Renilla control light, replicate 1	Renilla control light, replicate 2
Tomosyn	DRSC19842		34411		16640	
Tomosyn	DRSC19692		23156		10945	
CG42258	DRSC19741		19376		9910	
Vps53	DRSC00595		10441		4240	
CG13912	DRSC08381		4704		2184	
CG8065	DRSC10959		7874		2106	
CG11192	DRSC06057		5908		1840	
CG5828	DRSC02900		2540	5968	876	2632
Tomosyn	DRSC19782		1589	7056	803	2490
Tomosyn	DRSC19365		2909	7136	644	1475
Tpc2	DRSC04322		2685	5190	412	1795
